These results are taken from PMC6256979.

Chains of the proteins cited; added tags and fusions are not shown. Chains listed by the source or under a name are the forms on record and can include a tag or linker. Residues count along the entry.
UniProt P02769, 25-607: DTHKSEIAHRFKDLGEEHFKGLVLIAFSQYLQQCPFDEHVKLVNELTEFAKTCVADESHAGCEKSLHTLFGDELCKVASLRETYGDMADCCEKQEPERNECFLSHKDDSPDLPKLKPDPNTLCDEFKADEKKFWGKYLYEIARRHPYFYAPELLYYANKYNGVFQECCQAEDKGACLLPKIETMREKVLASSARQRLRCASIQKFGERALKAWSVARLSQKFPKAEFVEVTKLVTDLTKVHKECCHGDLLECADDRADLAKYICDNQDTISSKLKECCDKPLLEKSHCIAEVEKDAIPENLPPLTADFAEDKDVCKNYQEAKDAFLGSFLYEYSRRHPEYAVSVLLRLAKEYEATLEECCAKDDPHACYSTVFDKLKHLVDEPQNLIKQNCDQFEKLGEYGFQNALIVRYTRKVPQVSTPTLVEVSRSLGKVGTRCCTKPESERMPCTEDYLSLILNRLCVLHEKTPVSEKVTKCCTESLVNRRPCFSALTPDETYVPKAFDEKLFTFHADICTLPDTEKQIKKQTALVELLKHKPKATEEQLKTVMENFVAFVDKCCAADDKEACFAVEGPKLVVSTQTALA
VEGF121 (human), one chain, as listed by the source: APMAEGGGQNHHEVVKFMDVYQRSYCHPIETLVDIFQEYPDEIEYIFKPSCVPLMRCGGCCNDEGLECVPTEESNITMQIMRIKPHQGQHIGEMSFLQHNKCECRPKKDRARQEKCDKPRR
VEGF165 (human), one chain, as listed by the source: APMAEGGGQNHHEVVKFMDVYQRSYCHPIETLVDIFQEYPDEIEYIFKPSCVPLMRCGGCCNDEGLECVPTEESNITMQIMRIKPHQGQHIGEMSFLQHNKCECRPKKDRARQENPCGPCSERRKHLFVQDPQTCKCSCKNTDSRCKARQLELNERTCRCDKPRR

In data set [1] the test system is VEGF121 (human). The experiment in a line: SPR. The note with it: SPR: TBSE (10 mM Tris/HCl, 100 mM NaCl, 0.05 mM EDTA, pH 7.0), 24 °C, VEGF on CM5 chip, 1:1 model; recombinant protein; label: FITC (blotting); folded or branched DNA.
The test system of data set [2] is VEGF165 (human). Put plainly: SPR. The note with it: SPR: TBSE (10 mM Tris/HCl, 100 mM NaCl, 0.05 mM EDTA, pH 7.0), 24 °C, VEGF on CM5 chip, 1:1 model, recombinant protein, label: FITC (blotting), folded or branched DNA.
Data set [3] relates to PQQGDH (pyrroloquinoline quinone glucose dehydrogenase). Put plainly: aptamer blotting. The note with it: blotting: TBSTE (TBSE + 0.05% Tween-20), BSA block, 100 nM FITC-aptamer; label: FITC (blotting); folded or branched DNA.
The subject of data set [4] is VEGF121 (human). Put plainly: aptamer blotting. The conditions noted are these: blotting: TBSTE (TBSE + 0.05% Tween-20), BSA block, 100 nM FITC-aptamer, recombinant protein, label: FITC (blotting), folded or branched DNA.
In a further data set the test system is thyroglobulin. Put plainly: aptamer blotting. The conditions noted are these: blotting: TBSTE (TBSE + 0.05% Tween-20), BSA block, 100 nM FITC-aptamer; commercial protein; label: FITC (blotting); folded or branched DNA.
Data set [5] deals with VEGF165 (human). The experiment in a line: aptamer blotting. The conditions noted are these: blotting: TBSTE (TBSE + 0.05% Tween-20), BSA block, 100 nM FITC-aptamer; recombinant protein; label: FITC (blotting); folded or branched DNA.
In data set [6] the target is bovine serum albumin (BSA) (bovine) (UniProt P02769). Put plainly: aptamer blotting. The conditions noted are these: blotting: TBSTE (TBSE + 0.05% Tween-20), BSA block, 100 nM FITC-aptamer; commercial protein; label: FITC (blotting); folded or branched DNA.

Construct, isoform or probe ends are uncertain for at least one entry. For part of these data: A negative result means that nothing was seen under these conditions. For part of these data: A weaker result is weaker than the reference pair of the same experiment.

For orientation: Kd means a measure of binding affinity in units of concentration. For the sequence “ATACCAGTCTATTCAATTGCACTCTGTGGGGGTGGACGGGCCGGGTAGATAGTATGTGCAATCA [Vap7]”, the Kd stood at 1 nM in the data set with VEGF121 (human) [1] and 20 nM in the data set with VEGF165 (human) [2]. The binding result in the data set on VEGF165 (human) [2] (TBSE without KCl) was “binds more weakly”; with VEGF165 (human) [2] (folded with 50 mM KCl), “binds”; in data set [3] it was “no binding”; in the data set on VEGF121 (human) [4] (weaker than VEGF165 in this assay), “binds more weakly”; in the data set on thyroglobulin, “no binding”; with VEGF165 (human) [5], “binds”. The binding result in data set [6] is “no binding”.
In the case of TGTGGGGGTGGACGGGCCGGGTAGA [V7t1], the Kd in the data set with VEGF121 (human) [1] was 1.1 nM. The binding result with VEGF121 (human) [4] and in the data set on VEGF165 (human) [5] was “binds” throughout.
